Measurements taken from paper PMC10409813.

Tests used:
[1] = molecular target: SBP-tagged full-length S. japonicus Rop1 (S. japonicus); assay: pull-down; SBP-tagged sjRop1 or its AIM mutant held on streptavidin beads, incubated with purified Atg8 for 1 h at 4 °C in buffer with 0.05% DDM (25 mM HEPES/KOH pH 7.4, 150 mM NaCl); SDS-PAGE and Coomassie blue staining; both purified
[2] = molecular target: SBP-tagged sjRop1 with mutated putative AIM motif (S. japonicus); assay: as above

binding [1]	binding [2]	Binder
no binding	no binding	S. pombe Atg8 tagged at the N-terminus with GST (protein, UniProt O94272 1-116) MRSQFKDDFSFEKRKTESQRIREKYPDRIPVICEKVDKSDIAAIDKKKYLVPSDLTVGQFVYVIRKRIKLSPEKAIFIFIDEILPPTAALMSTIYEEHKSEDGFLYITYSGENTFG
no binding	no binding	S. cerevisiae Atg8 tagged at the N-terminus with His10 (protein, UniProt P38182 1-117) MKSTFKSEYPFEKRKAESERIADRFKNRIPVICEKAEKSDIPEIDKRKYLVPADLTVGQFVYVIRKRIMLPPEKAIFIFVNDTLPPTAALMSAIYQEHKDKDGFLYVTYSGENTFGR

No constants are given. Whether binding was seen depends on the method and setting. Where a sequence is shown, tags or fusion partners need not be part of it.
